From PubChem BioAssay AID720534 (National Center for Advancing Translational Sciences (NCATS), 2013)
The list shows a part of the results, in another mix than the full data. Inconclusive results are not listed. Calls of active or inactive are those of the source. The call rests on the fitted dose curve; in most records, active means well fitted inhibition curve with a large enough effect; inconclusive means small, poorly fitted or top-dose-only effect; inactive means no such curve, though single readings can be large or run the other way.
Potency means the concentration at half of the fitted maximal effect.

Experiment: qHTS for Inhibitors of TGF-b: Confirmation of Cherry Picks; further: nearly all actives have a fitted effect of over 65% in size
Settings: HepG2 CAGA-GFP TGF-b reporter, GFP fluorescence, 18 h; cells stimulated with TGF-beta, 500 pg/mL
Excerpt: TGF-b is a main component in the TGF-b signaling pathway which plays diverse roles in cellular and development pathways. TGF-b is mediated through transcription factors called "Smads". Although the Smad-dependent pathway is the primary canonical TGF-b signaling mode, TGF-b1 can also activate alternative signaling pathways, including those involving MAPK (ERK, JNK and p38). This interaction may mediate or enhance Smad-dependent responses, or can exert Smad-independent effects. The complexity of this signaling cascade allows the TGF-b superfamily to perform unique, overlapping or redundant functions. […] We aim to identify Smad3-small molecule antagonists using a quantitative high throughput screening (qHTS) approach. […]
Suspensions of trypsinized HEPG2 CAGA-GFP cells were dispensed into white, tissue culture-treated, solid 1536-well plates at 5uL/well (1000 cells/well final concentration) in DMEM medium supplemented with 1% FBS. […] The plates were measured on an Acumen eX3 Explorer plate reader for GFP fluorescence (ex488/em500-530). GFP values were calculated by determining the mean GFP fluorescence of individual cells, and compiling these values for each well to determine a total well GFP signal. The %Activity was determined from the corrected fluorescence values. […] Concentration-response curves were fitted to the signals arising from the resulting fluorescence. […]
With `COc1c(O)cc2c(c1OC)-c1ccc(SC)c(=O)cc1C(NC(C)=O)CC2` (stereo unspecified) the Potency was active: 46.1 nM.
